Test results as given in PubChem BioAssay AID186 (DTP/NCI, 2004).
Shown are survivors of the treated group in tumour-free mice. Counts of survivors are from the toxicity check (mostly the fifth day) where no day follows; animals may have died later. Schedules are NCI's codes, read here as Q, the interval in days (D) or hours (H), X, the number of doses.

Tested on: B6D2F1 mice, nontumored toxicity test, survival
Assay: NCI In Vivo Anticancer Drug Screen. Data for tumor model Nontumored Animals (Toxicity Test) in B6D2F1 (BDF1) mice
Conditions: vehicle: saline

Measured: survivor count

Nc1nc(=O)n(C2OC(CO)C(O)C2O)cc1F (centres undefined)
8 of 8: dose: 8.0 mg/kg/injection, schedule: Q01DX009 (oral) | dose: 16.0 mg/kg/injection, schedule: Q01DX009 (oral) | dose: 32.0 mg/kg/injection, schedule: Q01DX009 (oral) | dose: 64.0 mg/kg/injection, schedule: Q01DX009 (oral) | dose: 128.0 mg/kg/injection, schedule: Q01DX001 (oral) | dose: 128.0 mg/kg/injection, schedule: Q01DX009 (oral) | dose: 256.0 mg/kg/injection, schedule: Q01DX001 (oral) | dose: 512.0 mg/kg/injection, schedule: Q01DX001 (oral) | dose: 1024.0 mg/kg/injection, schedule: Q01DX001 (oral)
